Data as given in PubChem BioAssay AID1053208 (Peter MacCallum Cancer Centre, 2014).
Screen: 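Find knock-downs that sensitise mouse osteosarcoma cells to doxorubicin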 (primary screen). System: mouse osteosarcoma cells, early-passage culture from an engineered mouse model of fibroblastic bone tumour. Reagent: siRNA pool against mouse genes, 40 nM. Duration: about 120 h (48 h before drug, then 72 h with drug). Conditions: doxorubicin 100 nM for 72 h, roughly 30-40% inhibitory dose. Detection: 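Viability read as ATP luminescence after 72 h of 100 nM doxorubicin or none, duplicate wells averaged, scaled to non-targeting siRNA, then expressed as robust z-scores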. Reading the numbers: viability z-score with doxorubicin and doxorubicin viability vs non-targeting: higher = more viable cells under doxorubicin; viability z-score without drug: higher = more viable cells with knock-down alone; z-score of drug to no-drug ratio: higher = less drug sensitisation by knock-down. Active means: 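a pool counts as active when its viability z-score with doxorubicin is -2 or below and its z-score without drug lies between -2 and 2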.
In all, the deposit lists about 17,000 reagents; shown is a random part of them. 788 of them (4.7%) count as active. 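Calls rest on z-score classes alone; an extra cut-off of viability at most 70% of control was not applied to them.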 Entries without a mark were called inactive. Reagent sequences are not shown.

| gene | combined z-score class | viability z-score with doxorubicin | viability z-score without drug | z-score of drug to no-drug ratio | doxorubicin viability vs non-targeting |
| --- | --- | --- | --- | --- | --- |
| Abcf3 | no change with or without drug | -0.45 | 0.51 | -0.67 | 0.9 |
| Zfp608 | no change with or without drug | -1.01 | -1.18 | -0.11 | 0.85 |
| Wls | high cell count without drug only | 1.01 | 2.87 | -0.67 | 1.03 |
| Fyb1 | no change with or without drug | -0.9 | -0.51 | -0.56 | 0.86 |
| Mmp1a | no change with or without drug | 0.22 | 0.84 | -0.22 | 0.96 |
| Ppp6r2 | no change with or without drug | 0.11 | 0 | 0.22 | 0.95 |
| Or6f1 | low cell count without drug only | 0.45 | -2.19 | 2.47 | 0.98 |
| Fbxo11 | no change with or without drug | -0.45 | 1.01 | -1.01 | 0.9 |
| Galnt9 | no change with or without drug | -1.01 | 0.51 | -1.24 | 0.85 |
| Tmem51 | no change with or without drug | -1.12 | 0 | -1.12 | 0.84 |
| Cxcl15 | no change with or without drug | 1.91 | 0.34 | 1.8 | 1.11 |
| Plcg1 | no change with or without drug | -0.67 | 0.84 | -1.12 | 0.88 |
| Ssmem1 | no change with or without drug | -0.67 | 0.17 | -0.67 | 0.88 |
| Plp2 | no change with or without drug | 0.45 | -1.69 | 1.91 | 0.98 |
| Hip1r | no change with or without drug | 1.01 | 1.35 | 0.22 | 1.03 |
| Tepsin | high cell count without drug only | 1.8 | 2.19 | 0.45 | 1.1 |
| Cyp2b19 | no change with or without drug | -0.45 | -0.17 | -0.22 | 0.9 |
| Parn | no change with or without drug | 0.45 | -0.51 | 1.01 | 0.98 |
| Rcc1 | no change with or without drug | -0.67 | -1.52 | 0.45 | 0.88 |
| Lyrm2 | no change with or without drug | 0.9 | -0.17 | 1.24 | 1.02 |
| Xpo1 | no change with or without drug | -1.12 | -0.51 | -0.79 | 0.84 |
| Flvcr1 | no change with or without drug | -1.24 | -1.18 | -0.45 | 0.83 |
| Mapk11 | no change with or without drug | 0 | -1.35 | 1.12 | 0.94 |
| Sema6d | no change with or without drug | -0.45 | -0.17 | -0.22 | 0.9 |
| Tafa5 | no change with or without drug | -0.45 | -0.17 | -0.22 | 0.9 |
| Nudt12 | no change with or without drug | -1.24 | -1.01 | -0.56 | 0.83 |
| Tchhl1 | no change with or without drug | 0.9 | 1.52 | 0 | 1.02 |
| Trim30d | no change with or without drug | -1.12 | -0.67 | -0.67 | 0.84 |
| Dennd2c | low cell count without drug only | 0.34 | -6.91 | 9.22 | 0.97 |
| Btnl1 | no change with or without drug | -0.22 | -0.67 | 0.34 | 0.92 |
| Cyp1a2 | no change with or without drug | 0.67 | -1.85 | 2.36 | 1 |
| Il23r | no change with or without drug | 0 | -0.17 | 0.22 | 0.94 |
| Tmem74 | no change with or without drug | -0.56 | -0.17 | -0.34 | 0.89 |
| Cdipt | no change with or without drug | -0.56 | -0.51 | -0.11 | 0.89 |
| Ppp2cb | no change with or without drug | 1.01 | 0.51 | 0.79 | 1.03 |
| Zmynd10 | no change with or without drug | -1.35 | -0.51 | -1.01 | 0.82 |
| Tcstv1a | no change with or without drug | -1.12 | -1.01 | -0.45 | 0.84 |
| Usp45 | no change with or without drug | 0.9 | -0.17 | 1.24 | 1.02 |
| Rnaseh1 | no change with or without drug | -0.67 | 0 | -0.56 | 0.88 |
| Rpia | no change with or without drug | 0.45 | -1.35 | 1.69 | 0.98 |
| Psma6 | low cell count with and without drug | -6.07 | -5.9 | -3.48 | 0.4 |
| Abcb7 | no change with or without drug | 0.22 | 0.67 | -0.11 | 0.96 |
| Nckap1l | no change with or without drug | 0.45 | -0.51 | 1.01 | 0.98 |
| Acvr2a | no change with or without drug | 0.45 | 0.51 | 0.22 | 0.98 |
| Ubap2l | no change with or without drug | -1.01 | -0.84 | -0.45 | 0.85 |
| 1700020L24Rik | no change with or without drug | 1.8 | 1.85 | 0.67 | 1.1 |
| Serpina3n | no change with or without drug | -0.11 | 0.17 | -0.11 | 0.93 |
| Micall2 | no change with or without drug | -0.22 | -0.17 | 0 | 0.92 |
| Aldh2 | no change with or without drug | -0.45 | 0.17 | -0.45 | 0.9 |
| Nucb1 | no change with or without drug | 1.01 | -0.67 | 1.69 | 1.03 |
| Xiap | no change with or without drug | -1.12 | -0.17 | -1.01 | 0.84 |
| Pcdhga4 | no change with or without drug | -0.22 | -0.51 | 0.22 | 0.92 |
| Lpar5 | no change with or without drug | -0.22 | 0.51 | -0.45 | 0.92 |
| Abcg4 | no change with or without drug | -0.11 | -0.17 | 0.11 | 0.93 |
| Ptprm | no change with or without drug | -0.79 | -1.85 | 0.67 | 0.87 |
| Pex7 | no change with or without drug | 1.8 | 1.18 | 1.12 | 1.1 |
| Gip | no change with or without drug | -0.45 | -0.17 | -0.22 | 0.9 |
| Pla2g6 | no change with or without drug | -0.67 | 0.17 | -0.67 | 0.88 |
| Acsm3 | no change with or without drug | 0.11 | -0.17 | 0.34 | 0.95 |
| Sgcg | no change with or without drug | 0 | -0.17 | 0.22 | 0.94 |
| Trim45 | high cell count with doxorubicin only | 2.02 | 0.51 | 1.8 | 1.12 |
| E030011O05Rik | no change with or without drug | 0.45 | 1.52 | -0.45 | 0.98 |
| Mustn1 | no change with or without drug | 1.57 | 0 | 1.8 | 1.08 |

Already shown: an excerpt of the list.
| gene | combined z-score class | viability z-score with doxorubicin | viability z-score without drug | z-score of drug to no-drug ratio | doxorubicin viability vs non-targeting |
| --- | --- | --- | --- | --- | --- |
| Trim30d | no change with or without drug | -1.12 | -0.67 | -0.67 | 0.84 |
| Dennd2c | low cell count without drug only | 0.34 | -6.91 | 9.22 | 0.97 |
| Btnl1 | no change with or without drug | -0.22 | -0.67 | 0.34 | 0.92 |
| Cyp1a2 | no change with or without drug | 0.67 | -1.85 | 2.36 | 1 |
| Il23r | no change with or without drug | 0 | -0.17 | 0.22 | 0.94 |
| Tmem74 | no change with or without drug | -0.56 | -0.17 | -0.34 | 0.89 |
| Cdipt | no change with or without drug | -0.56 | -0.51 | -0.11 | 0.89 |
| Ppp2cb | no change with or without drug | 1.01 | 0.51 | 0.79 | 1.03 |
| Zmynd10 | no change with or without drug | -1.35 | -0.51 | -1.01 | 0.82 |
| Tcstv1a | no change with or without drug | -1.12 | -1.01 | -0.45 | 0.84 |
